Data published in PubChem BioAssay AID256 (DTP/NCI, 2004).
The list does not hold the whole screen: it gathers tests that were run many times, whatever their T/C, doses with no T/C, and many T/C values between a quarter and a half above the control. Further doses and runs are listed elsewhere. T/C gives the treated animals as a percentage of the vehicle group. Some doses have a count of surviving animals in place of a T/C: the source holds a T/C of zero for them, seemingly a mark for toxic or unscored doses. Some survivor counts are full or nearly so, which does not show that the dose was tolerated: the source hardly ever lists a survival T/C far under the control, and the zero likely stands for such cases as well. Survivors were counted at the toxicity check, usually on the fifth day, unless a day is given; later deaths do not show. Schedules are NCI's codes, taken here to give the interval after Q, in days (D) or hours (H), and the number of doses after X. Some doses were run more than once; their values stand side by side, smallest first. Some structures stand for samples that the source files as different forms (salt, stereo form or complex); doses refer to the form tested. Where survival is the endpoint, this PubChem deposit counts one and a half times the control or more as active, and values a quarter to a half above the control carry no call in these data; other NCI protocols may use other cut-offs. Some T/C values are followed by the survivors on the day toxicity was checked, most often the fifth; where none is given, no animal had died by that day.

System: CD2F1 mice, L1210 leukemia ip, survival T/C
Assay: NCI In Vivo Anticancer Drug Screen. Data for tumor model L1210 Leukemia (intraperitoneal) in CD2F1 (CDF1) mice
Conditions: higher T/C = longer survival
How it was run: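 Mice carrying a transplanted tumor received test compound or vehicle alone. The value is the measurement in the treated group divided by that in the vehicle-treated control group.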

[1] = T/C endpoint: mean survival time, dose: 100.0 mg/kg/injection, schedule: Q01DX001 (ip), vehicle: saline with Tween-80
[2] = T/C endpoint: mean survival time, dose: 200.0 mg/kg/injection, schedule: Q01DX001 (ip), vehicle: saline with Tween-80
[3] = T/C endpoint: mean survival time, dose: 400.0 mg/kg/injection, schedule: Q01DX001 (ip), vehicle: saline with Tween-80
[4] = T/C endpoint: mean survival time, dose: 100.0 mg/kg/injection, schedule: Q04DX003 (ip), vehicle: saline with Tween-80
[5] = T/C endpoint: mean survival time, dose: 10.0 mg/kg/injection, schedule: Q01DX009 (ip), vehicle: gum acacia
[6] = T/C endpoint: mean survival time, dose: 400.0 mg/kg/injection, schedule: Q04DX003 (ip), vehicle: saline with Tween-80

**Q.** CC(NC(=O)C(CSC(c1ccccc1)(c1ccccc1)c1ccccc1)NC(c1ccccc1)(c1ccccc1)c1ccccc1)C(=O)O (configuration not stated) was tested. Which survivor count (T/C endpoint: mean survival time, dose: 75.0 mg/kg/injection, schedule: Q01DX001 (ip), vehicle: saline) did it give?
**A.** The survivor count was 5 of 6.

**Q.** And the survivor count (T/C endpoint: mean survival time, dose: 300.0 mg/kg/injection, schedule: Q01DX001 (ip), vehicle: saline)?
**A.** The survivor count was 1 of 6.

**Q.** Which results are given for C1CC(N2CC2)CCC1N1CC1 (configuration not stated)?
**A.** T/C (T/C endpoint: mean survival time, dose: 4.0 mg/kg/injection, schedule: Q04DX003 (ip), vehicle: saline): 148 % of control; survivor count (T/C endpoint: mean survival time, dose: 30.0 mg/kg/injection, schedule: Q04DX003 (ip), vehicle: saline): 5 of 10; survivor count (T/C endpoint: mean survival time, dose: 44.0 mg/kg/injection, schedule: Q04DX003 (ip), vehicle: saline): 0 of 10; survivor count (T/C endpoint: mean survival time, dose: 67.0 mg/kg/injection, schedule: Q04DX003 (ip), vehicle: saline): 0 of 10; survivor count (T/C endpoint: mean survival time, dose: 100.0 mg/kg/injection, schedule: Q04DX003 (ip), vehicle: saline): 0 of 10; survivor count (T/C endpoint: mean survival time, dose: 150.0 mg/kg/injection, schedule: Q04DX003 (ip), vehicle: saline): 0 of 10

**Q.** What does the source list for CCOC(=O)C1=C(Nc2ccc(OC)cc2)C(N)=NC1=N?
**A.** T/C (T/C endpoint: median survival time, dose: 100.0 mg/kg/injection, schedule: Q01DX005 (ip), vehicle: saline): 128 % of control; T/C (T/C endpoint: median survival time, dose: 100.0 mg/kg/injection, schedule: Q01DX005 (ip), vehicle: suspension in saline): 128 % of control; survivor count (T/C endpoint: median survival time, dose: 200.0 mg/kg/injection, schedule: Q01DX005 (ip), vehicle: suspension in saline): 3 of 6; survivor count (T/C endpoint: median survival time, dose: 277.7 mg/kg/injection, schedule: Q01DX005 (ip), vehicle: saline): 5 of 6; T/C (T/C endpoint: median survival time, dose: 277.78 mg/kg/injection, schedule: Q01DX005 (ip), vehicle: saline): 134 % of control

**Q.** How did the survivor count [1] turn out when O=C(c1ccccc1)C1(c2ccccc2)OP(c2ccccc2)(c2ccccc2)(c2ccccc2)CC1c1ccccc1 (configuration not stated) was run?
**A.** Its survivor count is 0 of 6.

**Q.** What about the survivor count [2] of the same compound?
**A.** The survivor count was 0 of 6.

**Q.** And the survivor count [3]?
**A.** The survivor count was 0 of 6.

**Q.** What does the source list for COc1ccc(C(SCC(N)C(=O)O)(c2ccccc2)c2ccc(OC)cc2)cc1 (configuration not stated)?
**A.** T/C (T/C endpoint: mean survival time, dose: 25.0 mg/kg/injection, schedule: Q01DX009 (ip), vehicle: saline): 134 % of control; survivor count (T/C endpoint: mean survival time, dose: 50.0 mg/kg/injection, schedule: Q01DX009 (ip), vehicle: saline): 4 of 6; survivor count (T/C endpoint: mean survival time, dose: 100.0 mg/kg/injection, schedule: Q01DX009 (ip), vehicle: saline): 4 of 6; survivor count (T/C endpoint: mean survival time, dose: 200.0 mg/kg/injection, schedule: Q01DX009 (ip), vehicle: saline): 0 of 6; survivor count (T/C endpoint: mean survival time, dose: 400.0 mg/kg/injection, schedule: Q01DX009 (ip), vehicle: saline): 0 of 6

**Q.** With [CH3][Sn]1([CH3])[O]C2C(CO)OC(n3ccc4c(N)ncnc43)C2[O]1 (configuration not stated) as the compound, how does the survivor count (T/C endpoint: mean survival time, dose: 6.25 mg/kg/injection, schedule: Q01DX005 (ip), vehicle: other) read?
**A.** Its survivor count is 6 of 6.

**Q.** And the survivor count (T/C endpoint: mean survival time, dose: 12.5 mg/kg/injection, schedule: Q01DX005 (ip), vehicle: other)?
**A.** Its survivor count is 0 of 6 and 4 of 6.

**Q.** What about the survivor count (T/C endpoint: mean survival time, dose: 25.0 mg/kg/injection, schedule: Q01DX005 (ip), vehicle: other) of the same compound?
**A.** Its survivor count is 0 of 6.

**Q.** What about the survivor count (T/C endpoint: mean survival time, dose: 50.0 mg/kg/injection, schedule: Q01DX005 (ip), vehicle: other) of the same compound?
**A.** Its survivor count is 0 of 6.

**Q.** What about the survivor count (T/C endpoint: mean survival time, dose: 100.0 mg/kg/injection, schedule: Q01DX005 (ip), vehicle: other) of the same compound?
**A.** Its survivor count is 0 of 6.

**Q.** What about the survivor count (T/C endpoint: mean survival time, dose: 200.0 mg/kg/injection, schedule: Q01DX005 (ip), vehicle: other) of the same compound?
**A.** Its survivor count is 0 of 6.

**Q.** What does the source list for O=C(Nc1ccccc1)c1c(O)[nH]c(=O)[nH]c1=O?
**A.** T/C (T/C endpoint: median survival time, dose: 50.0 mg/kg/injection, schedule: Q01DX009 (ip), vehicle: saline with Tween-80): 134 % of control; T/C (T/C endpoint: median survival time, dose: 100.0 mg/kg/injection, schedule: Q01DX009 (ip), vehicle: saline with Tween-80): 142, 143, 149 % of control; T/C (T/C endpoint: median survival time, dose: 200.0 mg/kg/injection, schedule: Q01DX009 (ip), vehicle: saline with Tween-80): 134 [5 of 6 alive] and 137 % of control; survivor count (T/C endpoint: median survival time, dose: 400.0 mg/kg/injection, schedule: Q01DX009 (ip), vehicle: saline with Tween-80): 2 of 6

**Q.** Which survivor count (T/C endpoint: mean survival time, dose: 50.0 mg/kg/injection, schedule: Q01DX001 (ip), vehicle: Klucel (hydroxypropylcellulose) (HPC)) does the source give for c1ccc(C2CC([P+](c3ccccc3)(c3ccccc3)c3ccccc3)=NN2)cc1 (configuration not stated) here?
**A.** The survivor count was 2 of 6.

**Q.** What about the survivor count (T/C endpoint: mean survival time, dose: 75.0 mg/kg/injection, schedule: Q01DX001 (ip), vehicle: Klucel (hydroxypropylcellulose) (HPC)) of the same compound?
**A.** Its survivor count is 0 of 6.

**Q.** What about the survivor count (T/C endpoint: mean survival time, dose: 110.0 mg/kg/injection, schedule: Q01DX001 (ip), vehicle: Klucel (hydroxypropylcellulose) (HPC)) of the same compound?
**A.** The survivor count was 1 of 6.

**Q.** With Cc1ncc(CO)c(C2NOCc3nscc32)c1O (configuration not stated) as the compound, how does the survivor count (T/C endpoint: mean survival time, dose: 42.0 mg/kg/injection, schedule: Q01DX009 (ip), vehicle: Klucel (hydroxypropylcellulose) (HPC)) read?
**A.** Its survivor count is 3 of 6.

**Q.** How did the survivor count [4] turn out when COC(=O)c1cc2c3ccccc3ncc2c2ccccc12 was run?
**A.** Its survivor count is 6 of 6.

**Q.** What does the source list for O=C(C=C(C(F)(F)F)C(F)(F)F)c1ccc(F)cc1?
**A.** survivor count (T/C endpoint: mean survival time, dose: 200.0 mg/kg/injection, schedule: Q04DX003 (ip), vehicle: other): 3 of 6; survivor count (T/C endpoint: mean survival time, dose: 400.0 mg/kg/injection, schedule: Q04DX003 (ip), vehicle: other): 0 of 6

**Q.** With CC[CH2][Sn]([Cl])([Cl])[CH2]CC.Oc1ccccc1C=NCCN=Cc1ccccc1O as the compound, how does the T/C [5] read?
**A.** Its T/C is 128 % of control [4 of 6 alive].

**Q.** What about the survivor count [5] of the same compound?
**A.** Its survivor count is 3 of 6.

**Q.** What about the survivor count (T/C endpoint: mean survival time, dose: 20.0 mg/kg/injection, schedule: Q01DX009 (ip), vehicle: gum acacia) of the same compound?
**A.** Its survivor count is 0 of 6.

**Q.** What about the survivor count [1] of the same compound?
**A.** Its survivor count is 0 of 6.

**Q.** And the survivor count [2]?
**A.** The survivor count was 0 of 6.

**Q.** What about the survivor count [3] of the same compound?
**A.** The survivor count was 0 of 6.

**Q.** What does the source list for COCn1cnc2c(F)ncnc21?
**A.** survivor count [4]: 3 of 6; survivor count (T/C endpoint: mean survival time, dose: 200.0 mg/kg/injection, schedule: Q04DX003 (ip), vehicle: saline with Tween-80): 0 of 6; survivor count [6]: 0 of 6

**Q.** What does the source list for CCN(N=O)C(=O)Nc1ccc(C2CC(=O)N(C)C2=O)cc1 (configuration not stated)?
**A.** T/C (T/C endpoint: mean survival time, dose: 200.0 mg/kg/injection, schedule: Q01DX001 (ip), vehicle: distilled water + Tween-80): 126 % of control; survivor count (T/C endpoint: mean survival time, dose: 400.0 mg/kg/injection, schedule: Q01DX001 (ip), vehicle: distilled water + Tween-80): 0 of 6 and 2 of 6

**Q.** Which results are given for C=C(C)C1(CC(C)C)C(=O)NC(=S)NC1=O?
**A.** survivor count (T/C endpoint: mean survival time, dose: 75.0 mg/kg/injection, schedule: Q01DX001 (ip), vehicle: other): 0 of 6; survivor count (T/C endpoint: mean survival time, dose: 150.0 mg/kg/injection, schedule: Q01DX001 (ip), vehicle: other): 0 of 6; survivor count (T/C endpoint: mean survival time, dose: 300.0 mg/kg/injection, schedule: Q01DX001 (ip), vehicle: other): 0 of 6

**Q.** How did the survivor count (T/C endpoint: median survival time, dose: 128.0 mg/kg/injection, schedule: Q01DX009 (ip), vehicle: saline) turn out when [Cl][Mn][Cl] was run?
**A.** The survivor count was 0 of 6.

**Q.** Which results are given for N=c1c2ncn(Cc3cccc(C(F)(F)F)c3)c2ncn1O?
**A.** survivor count (T/C endpoint: mean survival time, dose: 100.0 mg/kg/injection, schedule: Q04DX003 (ip), vehicle: acetone): 6 of 6; survivor count (T/C endpoint: mean survival time, dose: 200.0 mg/kg/injection, schedule: Q04DX003 (ip), vehicle: acetone): 0 of 6; survivor count (T/C endpoint: mean survival time, dose: 400.0 mg/kg/injection, schedule: Q04DX003 (ip), vehicle: acetone): 1 of 6

**Q.** Cc1cccc(/C=N/OCCC(C)C)n1 was tested. Which survivor count [6] did it give?
**A.** The survivor count was 3 of 6.
